Measurements reported in the supplement of paper PMC10849652.
Some of the results follow.

Protein sequences, listed by entry. Tags and fused reporters are not part of them. Lines headed by an entry give the natural chain unless they say otherwise; changes in a name come on top.
UniProt Q8IY37: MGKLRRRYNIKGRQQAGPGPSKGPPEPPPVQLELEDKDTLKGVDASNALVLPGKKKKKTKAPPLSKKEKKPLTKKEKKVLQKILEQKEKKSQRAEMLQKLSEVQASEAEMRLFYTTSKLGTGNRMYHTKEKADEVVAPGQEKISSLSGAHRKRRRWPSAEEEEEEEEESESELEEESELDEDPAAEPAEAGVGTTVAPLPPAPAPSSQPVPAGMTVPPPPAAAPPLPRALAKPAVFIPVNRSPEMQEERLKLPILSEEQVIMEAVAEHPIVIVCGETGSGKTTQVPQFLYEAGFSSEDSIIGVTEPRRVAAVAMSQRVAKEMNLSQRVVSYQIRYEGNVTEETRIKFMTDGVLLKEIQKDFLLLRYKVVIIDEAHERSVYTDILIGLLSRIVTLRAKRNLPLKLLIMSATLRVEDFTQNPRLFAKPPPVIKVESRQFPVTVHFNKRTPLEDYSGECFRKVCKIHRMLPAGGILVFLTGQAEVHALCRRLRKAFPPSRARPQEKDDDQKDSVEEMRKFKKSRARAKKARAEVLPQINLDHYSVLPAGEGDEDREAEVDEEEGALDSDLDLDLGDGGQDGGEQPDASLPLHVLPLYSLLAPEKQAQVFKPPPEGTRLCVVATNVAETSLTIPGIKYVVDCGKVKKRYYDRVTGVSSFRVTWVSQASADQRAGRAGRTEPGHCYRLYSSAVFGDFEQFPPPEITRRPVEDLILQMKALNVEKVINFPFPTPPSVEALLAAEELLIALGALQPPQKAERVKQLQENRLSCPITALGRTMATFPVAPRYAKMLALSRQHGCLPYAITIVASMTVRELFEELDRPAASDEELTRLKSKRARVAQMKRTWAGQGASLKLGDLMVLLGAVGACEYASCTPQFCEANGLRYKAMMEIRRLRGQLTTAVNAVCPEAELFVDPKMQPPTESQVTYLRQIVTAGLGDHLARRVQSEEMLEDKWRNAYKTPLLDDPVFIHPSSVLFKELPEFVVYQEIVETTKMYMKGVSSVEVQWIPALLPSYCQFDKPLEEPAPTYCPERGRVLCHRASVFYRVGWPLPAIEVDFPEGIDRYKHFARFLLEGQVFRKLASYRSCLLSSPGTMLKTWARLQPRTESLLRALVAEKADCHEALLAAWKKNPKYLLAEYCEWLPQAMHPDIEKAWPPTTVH
UniProt P98153: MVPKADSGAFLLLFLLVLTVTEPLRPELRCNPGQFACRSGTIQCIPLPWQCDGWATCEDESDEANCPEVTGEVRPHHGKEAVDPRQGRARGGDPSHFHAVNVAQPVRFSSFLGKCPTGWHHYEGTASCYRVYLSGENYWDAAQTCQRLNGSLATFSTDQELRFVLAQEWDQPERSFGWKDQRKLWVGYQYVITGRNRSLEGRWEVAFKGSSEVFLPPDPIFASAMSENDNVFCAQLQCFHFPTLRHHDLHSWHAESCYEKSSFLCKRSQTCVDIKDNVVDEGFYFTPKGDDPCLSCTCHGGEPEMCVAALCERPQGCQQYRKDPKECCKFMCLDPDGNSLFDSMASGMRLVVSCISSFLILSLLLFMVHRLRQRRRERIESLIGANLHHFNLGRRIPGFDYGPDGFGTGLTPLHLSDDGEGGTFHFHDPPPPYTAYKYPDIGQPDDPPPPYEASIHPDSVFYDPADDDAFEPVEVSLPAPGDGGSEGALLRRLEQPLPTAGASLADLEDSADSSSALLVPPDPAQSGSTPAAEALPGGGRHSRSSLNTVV
UniProt O60884: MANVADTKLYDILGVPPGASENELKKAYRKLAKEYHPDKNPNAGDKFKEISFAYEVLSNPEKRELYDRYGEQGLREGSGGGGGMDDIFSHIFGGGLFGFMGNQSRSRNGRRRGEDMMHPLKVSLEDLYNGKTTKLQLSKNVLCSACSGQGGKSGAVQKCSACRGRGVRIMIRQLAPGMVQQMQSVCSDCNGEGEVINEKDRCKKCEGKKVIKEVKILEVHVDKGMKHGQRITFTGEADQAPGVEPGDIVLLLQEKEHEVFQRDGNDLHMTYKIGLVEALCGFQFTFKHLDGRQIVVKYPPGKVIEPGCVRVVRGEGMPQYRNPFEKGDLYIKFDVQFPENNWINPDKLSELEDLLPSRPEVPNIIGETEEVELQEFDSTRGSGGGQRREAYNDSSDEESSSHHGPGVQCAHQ
UniProt Q9Y222: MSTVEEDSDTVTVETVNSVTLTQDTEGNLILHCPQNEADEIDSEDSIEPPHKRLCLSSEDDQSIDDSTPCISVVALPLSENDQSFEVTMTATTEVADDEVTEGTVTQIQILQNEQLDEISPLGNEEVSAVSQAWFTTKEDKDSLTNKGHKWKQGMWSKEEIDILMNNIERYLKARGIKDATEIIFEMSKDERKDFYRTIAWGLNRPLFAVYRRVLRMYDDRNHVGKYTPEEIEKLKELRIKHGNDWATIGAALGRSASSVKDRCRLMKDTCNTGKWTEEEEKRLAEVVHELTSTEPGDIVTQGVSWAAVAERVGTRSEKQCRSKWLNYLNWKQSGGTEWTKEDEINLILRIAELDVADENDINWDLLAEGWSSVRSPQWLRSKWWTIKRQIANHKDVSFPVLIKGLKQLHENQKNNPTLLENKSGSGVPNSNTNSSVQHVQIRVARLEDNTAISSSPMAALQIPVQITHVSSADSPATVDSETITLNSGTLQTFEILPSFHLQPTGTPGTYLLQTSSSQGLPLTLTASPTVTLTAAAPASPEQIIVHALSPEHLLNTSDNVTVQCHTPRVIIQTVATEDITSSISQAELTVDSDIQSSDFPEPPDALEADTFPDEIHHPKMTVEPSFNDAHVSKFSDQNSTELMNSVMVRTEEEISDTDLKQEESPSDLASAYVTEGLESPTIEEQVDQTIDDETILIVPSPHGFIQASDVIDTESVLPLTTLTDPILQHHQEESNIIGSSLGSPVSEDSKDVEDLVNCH
UniProt Q6P3W2: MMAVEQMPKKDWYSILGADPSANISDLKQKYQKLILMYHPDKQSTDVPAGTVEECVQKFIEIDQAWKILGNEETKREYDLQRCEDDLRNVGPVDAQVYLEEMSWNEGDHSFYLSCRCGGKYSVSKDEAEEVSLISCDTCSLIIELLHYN
UniProt P50570: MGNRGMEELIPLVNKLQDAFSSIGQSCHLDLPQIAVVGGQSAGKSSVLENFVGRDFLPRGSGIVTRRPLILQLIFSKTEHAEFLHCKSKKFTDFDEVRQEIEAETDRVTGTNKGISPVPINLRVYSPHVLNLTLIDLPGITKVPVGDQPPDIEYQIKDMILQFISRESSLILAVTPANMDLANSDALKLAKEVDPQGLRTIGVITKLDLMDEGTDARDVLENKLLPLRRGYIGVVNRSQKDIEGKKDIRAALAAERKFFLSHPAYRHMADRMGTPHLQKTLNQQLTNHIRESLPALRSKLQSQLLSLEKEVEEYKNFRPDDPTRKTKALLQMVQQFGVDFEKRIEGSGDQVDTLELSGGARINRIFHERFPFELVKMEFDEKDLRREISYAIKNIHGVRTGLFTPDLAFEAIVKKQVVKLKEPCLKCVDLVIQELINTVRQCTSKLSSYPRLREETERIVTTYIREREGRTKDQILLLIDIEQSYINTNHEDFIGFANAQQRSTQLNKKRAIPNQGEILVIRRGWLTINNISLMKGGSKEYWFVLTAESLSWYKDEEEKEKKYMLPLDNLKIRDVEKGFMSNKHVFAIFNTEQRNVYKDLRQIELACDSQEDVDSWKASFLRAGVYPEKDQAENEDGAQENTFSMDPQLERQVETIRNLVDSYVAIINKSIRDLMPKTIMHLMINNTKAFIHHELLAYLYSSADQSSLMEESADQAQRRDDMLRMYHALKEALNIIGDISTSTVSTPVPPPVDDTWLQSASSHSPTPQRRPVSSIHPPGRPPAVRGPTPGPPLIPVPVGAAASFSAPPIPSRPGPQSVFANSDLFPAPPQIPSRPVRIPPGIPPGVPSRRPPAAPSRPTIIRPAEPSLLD
UniProt Q6XZF7: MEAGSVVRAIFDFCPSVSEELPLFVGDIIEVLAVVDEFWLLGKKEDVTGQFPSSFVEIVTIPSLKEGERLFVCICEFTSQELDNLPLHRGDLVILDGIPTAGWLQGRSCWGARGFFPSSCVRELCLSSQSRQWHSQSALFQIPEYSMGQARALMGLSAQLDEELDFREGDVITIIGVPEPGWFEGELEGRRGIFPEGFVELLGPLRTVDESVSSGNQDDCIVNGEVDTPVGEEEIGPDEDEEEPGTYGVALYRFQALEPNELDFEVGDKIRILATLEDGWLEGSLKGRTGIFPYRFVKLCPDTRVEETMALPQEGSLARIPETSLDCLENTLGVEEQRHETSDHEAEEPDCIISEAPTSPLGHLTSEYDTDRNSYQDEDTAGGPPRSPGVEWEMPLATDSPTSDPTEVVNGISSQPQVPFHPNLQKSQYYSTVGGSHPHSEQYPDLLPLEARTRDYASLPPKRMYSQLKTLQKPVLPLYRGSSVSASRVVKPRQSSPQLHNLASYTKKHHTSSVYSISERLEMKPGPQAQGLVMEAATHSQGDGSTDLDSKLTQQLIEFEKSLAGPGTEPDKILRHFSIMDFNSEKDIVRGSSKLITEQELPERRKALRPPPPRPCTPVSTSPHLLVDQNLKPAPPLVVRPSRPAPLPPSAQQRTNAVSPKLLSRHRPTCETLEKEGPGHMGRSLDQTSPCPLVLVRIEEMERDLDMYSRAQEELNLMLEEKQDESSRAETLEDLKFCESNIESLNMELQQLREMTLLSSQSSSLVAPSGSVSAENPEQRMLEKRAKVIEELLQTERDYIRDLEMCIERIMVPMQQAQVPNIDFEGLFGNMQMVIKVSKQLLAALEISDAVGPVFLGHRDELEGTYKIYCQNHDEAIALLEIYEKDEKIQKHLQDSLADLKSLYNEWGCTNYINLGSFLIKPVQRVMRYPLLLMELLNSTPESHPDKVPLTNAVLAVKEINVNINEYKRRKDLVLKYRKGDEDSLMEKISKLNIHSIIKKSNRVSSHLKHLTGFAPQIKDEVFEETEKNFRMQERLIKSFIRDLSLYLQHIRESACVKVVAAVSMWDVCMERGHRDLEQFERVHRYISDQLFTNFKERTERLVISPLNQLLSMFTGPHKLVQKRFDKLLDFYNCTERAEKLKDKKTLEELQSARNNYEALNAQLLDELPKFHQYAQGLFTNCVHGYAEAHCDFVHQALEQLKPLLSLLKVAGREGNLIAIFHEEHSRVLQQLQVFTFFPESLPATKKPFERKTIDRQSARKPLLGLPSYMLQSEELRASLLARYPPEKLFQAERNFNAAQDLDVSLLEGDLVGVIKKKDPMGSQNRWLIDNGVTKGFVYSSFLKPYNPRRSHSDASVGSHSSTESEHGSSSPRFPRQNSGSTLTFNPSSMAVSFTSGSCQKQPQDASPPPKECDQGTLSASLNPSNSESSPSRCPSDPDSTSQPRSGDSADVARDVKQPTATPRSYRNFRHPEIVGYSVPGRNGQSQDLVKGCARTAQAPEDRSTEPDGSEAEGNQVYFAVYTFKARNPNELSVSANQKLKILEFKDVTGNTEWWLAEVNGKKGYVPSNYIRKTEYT
UniProt Q9NVM6: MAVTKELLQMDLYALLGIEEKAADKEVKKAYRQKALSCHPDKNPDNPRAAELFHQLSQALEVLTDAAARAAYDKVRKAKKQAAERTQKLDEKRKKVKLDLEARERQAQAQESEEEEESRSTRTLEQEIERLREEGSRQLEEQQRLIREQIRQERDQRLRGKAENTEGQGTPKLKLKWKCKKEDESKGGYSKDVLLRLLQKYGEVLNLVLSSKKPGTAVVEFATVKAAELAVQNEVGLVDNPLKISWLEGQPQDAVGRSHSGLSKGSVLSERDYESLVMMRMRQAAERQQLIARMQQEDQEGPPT
UniProt Q99766: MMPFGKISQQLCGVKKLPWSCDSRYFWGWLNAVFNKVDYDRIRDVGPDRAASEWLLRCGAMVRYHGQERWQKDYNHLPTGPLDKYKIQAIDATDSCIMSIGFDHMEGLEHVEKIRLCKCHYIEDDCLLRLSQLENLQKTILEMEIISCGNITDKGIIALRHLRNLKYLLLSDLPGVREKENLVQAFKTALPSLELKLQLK
UniProt Q9NVH1: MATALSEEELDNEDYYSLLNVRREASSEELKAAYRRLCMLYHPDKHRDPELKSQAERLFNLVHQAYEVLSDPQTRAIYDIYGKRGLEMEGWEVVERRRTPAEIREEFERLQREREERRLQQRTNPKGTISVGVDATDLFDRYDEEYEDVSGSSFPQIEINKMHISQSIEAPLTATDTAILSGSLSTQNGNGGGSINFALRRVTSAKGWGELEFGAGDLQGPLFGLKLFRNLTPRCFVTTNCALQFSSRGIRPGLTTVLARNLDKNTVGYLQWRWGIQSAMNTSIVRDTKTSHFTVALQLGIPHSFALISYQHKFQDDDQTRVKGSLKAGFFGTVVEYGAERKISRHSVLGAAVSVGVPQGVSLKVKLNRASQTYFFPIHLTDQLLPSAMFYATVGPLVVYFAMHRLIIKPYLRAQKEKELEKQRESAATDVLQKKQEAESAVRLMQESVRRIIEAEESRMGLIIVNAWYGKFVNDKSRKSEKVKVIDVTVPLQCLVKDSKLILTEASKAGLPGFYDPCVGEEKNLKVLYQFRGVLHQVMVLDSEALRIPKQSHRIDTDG

Columns and labels:
Test in all cases: log2 fold change, soluble protein after heating vs DMSO (PISA); higher = thermal stabilisation; K562 lysate, 10 uM; active = over 0.2 and 3.5 SD of the protein, either way, in both replicates (recomputed)
alvocidib = compound: CN1CC[C@H](c2c(O)cc(O)c3c(=O)cc(-c4ccccc4Cl)oc23)[C@H](O)C1 [alvocidib]
How it was run: (§1)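 Dounce homogenisation of K562 pellets in PBS pH 7.4 with 1 mM MgCl2 produced a crude extract, used at 1 mg/mL protein. Exposure to 10 μM compound lasted 30 min, and aliquots were then heated for 3 min across 48°C-58°C, pooled and brought to 0.5% NP-40 at 4°C. The supernatant after 21,000xg for 90 min was quantified by TMTpro 16plex LC-MS/MS with channel sums equalised. Duplicate values are given as log-two fold change in thermal stability relative to solvent controls.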

Tubastatin A = compound: CN1CCc2c(c3ccccc3n2Cc2ccc(C(=O)NO)cc2)C1 [Tubastatin A]
How it was run: as §1

[1] = compound: CNC(=O)C1=CC=CC=C1NC2=NC(=NC=C2Cl)NC3=C(C=C(C=C3)N4CCOCC4)OC
How it was run: as §1

defactinib = compound: CNC(=O)c1ccc(Nc2ncc(C(F)(F)F)c(NCc3nccnc3N(C)S(C)(=O)=O)n2)cc1 [defactinib]
How it was run: as §1

[2] = compound: CNc1nc(-c2ccc3c(N)n[nH]c3c2)cc(N2C[C@@H](C(=O)NC3CCCCC3)CC[C@H]2C)n1
How it was run: as §1

encorafenib = compound: COC(=O)N[C@@H](C)CNc1nccc(-c2cn(C(C)C)nc2-c2cc(Cl)cc(NS(C)(=O)=O)c2F)n1 [encorafenib]
How it was run: as §1

[3] = compound: COC(=O)[C@H](CCSC)NC(=O)C1=C(C=C(C=C1)NC[C@H](CS)N)C2=CC=CC=C2
How it was run: as §1

alisertib = compound: COc1cc(Nc2ncc3c(n2)-c2ccc(Cl)cc2C(c2c(F)cccc2OC)=NC3)ccc1C(=O)O [alisertib]
How it was run: as §1

[4] = compound: COc1cc2nc(-c3cc(F)ccc3O)nc(N[C@@H]3CNC[C@H]3C(C)(C)O)c2cc1OC
How it was run: as §1

gefitinib = compound: COc1cc2ncnc(Nc3ccc(F)c(Cl)c3)c2cc1OCCCN1CCOCC1 [gefitinib]
How it was run: as §1

Row | Target | log2 fold change (alvocidib) | log2 fold change (Tubastatin A) | log2 fold change [1] | log2 fold change (defactinib) | log2 fold change [2] | log2 fold change (encorafenib) | log2 fold change [3] | log2 fold change (alisertib) | log2 fold change [4] | log2 fold change (gefitinib)
1 | DIS3 (UniProt Q9Y2L1) | inactive: 0.01 | inactive: 0.012 | inactive: 0.012 | inactive: -0.015 | inactive: 0.021 | inactive: 0.016 | inactive: 0.016 | inactive: 0.008 | inactive: 0.014 | inactive: -0.009
2 | DHX37 (UniProt Q8IY37) | inactive: -0.116 | inactive: -0.057 | inactive: -0.095 | inactive: -0.048 | inactive: -0.163 | inactive: 0.057 | inactive: 0.082 | inactive: -0.019 | inactive: 0.012 | inactive: 0.02
3 | DPCD (UniProt Q9BVM2) | inactive: 0.012 | inactive: -0.036 | inactive: 0.054 | inactive: 0 | inactive: -0.027 | inactive: 0.01 | inactive: -0.087 | inactive: 0.016 | inactive: -0.008 | inactive: -0.021
4 | DGCR2 (UniProt P98153) | inactive: -0.14 | inactive: -0.14 | inactive: 0.09 | inactive: 0.068 | inactive: -0.145 | inactive: -0.094 | inactive: -0.014 | inactive: -0.155 | inactive: -0.055 | inactive: 0.068
5 | DNAJA2 (UniProt O60884) | inactive: 0 | inactive: 0.001 | inactive: 0.009 | inactive: 0.01 | inactive: -0.002 | inactive: 0.029 | inactive: -0.064 | inactive: 0.046 | inactive: 0.002 | inactive: -0.02
6 | DHRS4 (UniProt Q9BTZ2) | inactive: 0.02 | inactive: 0.012 | inactive: 0.071 | inactive: 0.036 | inactive: -0.059 | inactive: 0.031 | inactive: -0.005 | inactive: 0.021 | inactive: 0 | inactive: 0.013
7 | DLST (UniProt P36957) | inactive: -0.004 | inactive: 0.017 | inactive: -0.021 | inactive: 0.023 | inactive: -0.011 | inactive: -0.008 | inactive: 0.019 | inactive: 0.001 | inactive: 0.01 | inactive: -0.009
8 | DMTF1 (UniProt Q9Y222) | inactive: -0.028 | inactive: 0.001 | inactive: -0.006 | inactive: -0.092 | inactive: -0.051 | inactive: -0.031 | inactive: 0.082 | inactive: -0.078 | inactive: 0.049 | inactive: -0.05
9 | DNAJC24 (UniProt Q6P3W2) | inactive: 0.079 | inactive: 0.001 | inactive: -0.017 | inactive: 0.009 | inactive: -0.088 | inactive: 0.037 | inactive: -0.027 | inactive: -0.017 | inactive: -0.006 | inactive: -0.038
10 | DOCK2 (UniProt Q92608) | inactive: -0.199 | inactive: -0.071 | inactive: 0 | inactive: -0.185 | inactive: 0.044 | inactive: -0.032 | inactive: -0.077 | inactive: -0.122 | inactive: 0.102 | inactive: 0.004
11 | DICER1 (UniProt Q9UPY3) | inactive: -0.032 | inactive: -0.172 | inactive: 0.112 | inactive: 0.046 | inactive: -0.003 | inactive: 0.037 | inactive: 0.039 | inactive: 0.012 | inactive: -0.022 | inactive: -0.027
12 | DNM2 (UniProt P50570) | inactive: 0.037 | inactive: -0.051 | inactive: 0.024 | inactive: 0.007 | inactive: 0.029 | inactive: -0.004 | inactive: 0.061 | inactive: 0.014 | inactive: -0.02 | inactive: 0.006
13 | DIAPH1 (UniProt O60610) | inactive: 0.03 | inactive: 0 | inactive: -0.003 | inactive: -0.018 | inactive: -0.013 | inactive: 0.003 | inactive: 0.051 | inactive: 0.005 | inactive: 0.006 | inactive: -0.001
14 | DOLPP1 (UniProt Q86YN1) | inactive: -0.032 | inactive: -0.054 | inactive: -0.044 | inactive: -0.012 | inactive: -0.022 | inactive: 0.03 | inactive: 0.009 | inactive: -0.016 | inactive: -0.035 | inactive: 0.03
15 | DHX29 (UniProt Q7Z478) | inactive: -0.027 | inactive: 0.01 | inactive: 0.006 | inactive: 0.009 | inactive: 0.01 | inactive: 0.019 | inactive: -0.021 | inactive: 0.048 | inactive: -0.01 | inactive: 0.006
16 | DNM1L isoform 6 (UniProt O00429) | inactive: 0.01 | inactive: 0.031 | inactive: 0.018 | inactive: -0.008 | inactive: 0.002 | inactive: 0.008 | inactive: 0.035 | inactive: 0.006 | inactive: 0.01 | inactive: -0.021
17 | DNAH9 (UniProt Q9NYC9) | inactive: 0.026 | inactive: 0.009 | inactive: 0.037 | inactive: -0.116 | inactive: 0.041 | inactive: -0.003 | inactive: -0.026 | inactive: 0.043 | inactive: 0.018 | inactive: 0.007
18 | DNAJC6 isoform 2 (UniProt O75061) | inactive: -0.038 | inactive: -0.002 | inactive: 0.007 | inactive: 0.005 | inactive: 0.042 | inactive: 0.06 | inactive: -0.075 | inactive: -0.013 | inactive: 0.005 | inactive: 0.048
19 | DHRS7 (UniProt Q9Y394) | inactive: -0.039 | inactive: 0.043 | inactive: 0.024 | inactive: -0.039 | inactive: 0.115 | inactive: -0.015 | inactive: -0.078 | inactive: 0.032 | inactive: -0.039 | inactive: 0.055
20 | DNMBP (UniProt Q6XZF7) | inactive: -0.003 | inactive: -0.082 | inactive: 0.035 | inactive: -0.064 | inactive: -0.037 | inactive: 0 | inactive: 0.048 | inactive: -0.117 | inactive: -0.037 | inactive: 0.185
21 | DNAJC7 (UniProt Q99615) | inactive: -0.018 | inactive: -0.203 | inactive: 0.059 | inactive: 0 | inactive: 0.018 | inactive: 0.08 | inactive: 0.028 | inactive: 0.018 | inactive: -0.078 | inactive: 0.018
22 | DNAJC17 (UniProt Q9NVM6) | inactive: -0.047 | inactive: 0.032 | inactive: 0.024 | inactive: -0.031 | inactive: 0.034 | inactive: 0.044 | inactive: -0.115 | inactive: 0 | inactive: 0.015 | inactive: 0.064
23 | DMAC2L (UniProt Q99766) | inactive: 0.029 | inactive: 0 | inactive: -0.056 | inactive: 0.022 | inactive: 0.018 | inactive: 0.016 | active: -1.03 | inactive: 0.074 | inactive: 0.031 | inactive: 0.061
24 | DNAJC11 (UniProt Q9NVH1) | inactive: 0.008 | inactive: -0.019 | inactive: -0.011 | inactive: -0.024 | inactive: 0.004 | inactive: 0.006 | inactive: -0.035 | inactive: 0.008 | inactive: -0.03 | inactive: -0.065
25 | DNAJB6 (UniProt O75190) | inactive: -0.015 | inactive: 0.007 | inactive: 0.04 | inactive: 0.009 | inactive: 0.023 | inactive: 0.069 | inactive: 0.015 | inactive: -0.034 | inactive: -0.01 | inactive: 0.051
26 | DIABLO (UniProt Q9NR28) | inactive: -0.01 | inactive: 0.035 | inactive: -0.007 | inactive: -0.018 | inactive: 0.013 | inactive: 0.002 | inactive: -0.023 | inactive: 0.001 | inactive: 0.019 | inactive: -0.065
27 | DOCK8 (UniProt Q8NF50) | inactive: 0.019 | inactive: -0.098 | inactive: 0.007 | inactive: 0.001 | inactive: -0.073 | inactive: 0.003 | inactive: 0.05 | inactive: -0.01 | inactive: 0.014 | inactive: 0.005
28 | DOCK9 isoform 4 (UniProt Q9BZ29) | inactive: -0.025 | inactive: -0.044 | inactive: 0.039 | inactive: -0.008 | inactive: -0.021 | inactive: 0.011 | inactive: -0.029 | inactive: -0.008 | inactive: 0.03 | inactive: -0.01

Another view of part of the listing above:
Row,Target,log2 fold change (alvocidib),log2 fold change (Tubastatin A),log2 fold change [1],log2 fold change (defactinib),log2 fold change [2],log2 fold change (encorafenib),log2 fold change [3],log2 fold change (alisertib),log2 fold change [4],log2 fold change (gefitinib)
6,DHRS4 (UniProt Q9BTZ2),inactive: 0.02,inactive: 0.012,inactive: 0.071,inactive: 0.036,inactive: -0.059,inactive: 0.031,inactive: -0.005,inactive: 0.021,inactive: 0,inactive: 0.013
11,DICER1 (UniProt Q9UPY3),inactive: -0.032,inactive: -0.172,inactive: 0.112,inactive: 0.046,inactive: -0.003,inactive: 0.037,inactive: 0.039,inactive: 0.012,inactive: -0.022,inactive: -0.027
